Measured values from article PMC3052438.
No constants are given. Whether binding was seen depends on the method and setting. For some of these results: Binding seen in cells or lysates may run through a third protein. Some binding calls cover weakened binding; strength is not graded here.

Protein sequences, listed by entry. Tags and fused reporters are not part of them. Lines headed by an entry give the natural chain unless they say otherwise; changes in a name come on top.
UniProt P33895: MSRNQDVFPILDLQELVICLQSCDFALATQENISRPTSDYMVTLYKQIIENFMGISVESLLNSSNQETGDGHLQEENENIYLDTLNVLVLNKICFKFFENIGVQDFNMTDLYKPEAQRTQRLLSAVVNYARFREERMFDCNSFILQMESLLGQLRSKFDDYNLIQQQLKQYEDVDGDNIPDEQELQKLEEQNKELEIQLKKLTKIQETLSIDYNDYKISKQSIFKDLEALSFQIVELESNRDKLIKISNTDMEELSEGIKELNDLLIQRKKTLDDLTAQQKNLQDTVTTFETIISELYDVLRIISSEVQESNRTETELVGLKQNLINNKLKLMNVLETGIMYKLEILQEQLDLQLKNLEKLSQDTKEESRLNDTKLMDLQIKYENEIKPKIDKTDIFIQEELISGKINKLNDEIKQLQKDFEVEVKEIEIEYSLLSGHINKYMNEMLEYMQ
UniProt P40460: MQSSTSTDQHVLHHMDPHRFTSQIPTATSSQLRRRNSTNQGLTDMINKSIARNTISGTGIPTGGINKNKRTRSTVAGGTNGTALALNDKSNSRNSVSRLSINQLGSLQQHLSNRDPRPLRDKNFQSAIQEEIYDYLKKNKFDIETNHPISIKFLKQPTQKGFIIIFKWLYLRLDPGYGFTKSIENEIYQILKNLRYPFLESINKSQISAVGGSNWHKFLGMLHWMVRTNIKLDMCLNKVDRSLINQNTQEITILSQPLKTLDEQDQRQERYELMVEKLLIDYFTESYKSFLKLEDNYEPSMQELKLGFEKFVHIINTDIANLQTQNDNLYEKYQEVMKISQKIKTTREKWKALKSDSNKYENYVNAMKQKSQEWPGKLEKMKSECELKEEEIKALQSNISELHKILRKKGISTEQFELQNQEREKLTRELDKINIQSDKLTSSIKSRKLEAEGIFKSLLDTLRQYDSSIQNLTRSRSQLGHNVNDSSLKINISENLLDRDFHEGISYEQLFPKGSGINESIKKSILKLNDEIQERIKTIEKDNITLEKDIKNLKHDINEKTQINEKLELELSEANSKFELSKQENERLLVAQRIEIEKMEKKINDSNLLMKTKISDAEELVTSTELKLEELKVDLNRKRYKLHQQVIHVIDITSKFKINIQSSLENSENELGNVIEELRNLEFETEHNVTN

Legend:
[1] = biological target: Nuf2 (two-hybrid fusion) (S. cerevisiae) (UniProt P33895); test: two-hybrid; proteins fused with a DNA binding domain or an activation domain; cells spotted on histidine drop-out plates, 35°C, 48 hr; growth suggests interaction
Nuf2-myc (S. cerevisiae) = Nuf2-myc (S. cerevisiae) (UniProt P33895); test: co-IP; Nuf2-myc immunoprecipitated with a myc antibody, Ndc80-HA detected by western blotting with an HA antibody; cells treated with α factor, released at 35°C and harvested after 70 min (majority in metaphase)

Substance	binding [1]	binding (Nuf2-myc (S. cerevisiae))
wild-type Ndc80 (two-hybrid fusion) (from UniProt P40460 1-691)	binds	
Ndc80Δ490-510, tagged with HA (from UniProt P40460 1-691)		binds
Ndc80Δ490-510 (two-hybrid fusion) (from UniProt P40460 1-691)	binds	
Ndc80 wild-type, tagged with HA (from UniProt P40460 1-691)		binds
